Test results: article PMC11220700, “Activation and Purification of ß‐Glucocerebrosidase by Exploiting its Transporter LIMP‐2 – Implications for Novel Treatment Strategies in Gaucher's and Parkinson's Disease” (Advanced Science, 2024)
Where a chain is given by its changes, count along the chain named. In names and notes the source's numbering stands. These are yes or no findings as the source states them, for the method shown. For part of these data: In cells and extracts the contact can be indirect. Some results given as binding are weak or reduced against the parent protein; the word gives no strength. For part of these data: Sequences can lack the tags named with a protein. Blank lines part the entries; values can stand above or below the binder they belong to.

Assays:
[1] = target: T1, soluble LIMP‐2 (sLIMP‐2), secreted LIMP‐2 ectodomain (human) (UniProt Q14108); test: SEC; Ni-NTA eluate (co-expressed, co-purified sLIMP-2/GCase, or sLIMP-2 alone) on Superdex 200 Increase 3.2/300 in 25 mM HEPES, 150 mM NaCl, pH 6.5; UV280, western blot and activity of fractions; both purified
T1 sequence: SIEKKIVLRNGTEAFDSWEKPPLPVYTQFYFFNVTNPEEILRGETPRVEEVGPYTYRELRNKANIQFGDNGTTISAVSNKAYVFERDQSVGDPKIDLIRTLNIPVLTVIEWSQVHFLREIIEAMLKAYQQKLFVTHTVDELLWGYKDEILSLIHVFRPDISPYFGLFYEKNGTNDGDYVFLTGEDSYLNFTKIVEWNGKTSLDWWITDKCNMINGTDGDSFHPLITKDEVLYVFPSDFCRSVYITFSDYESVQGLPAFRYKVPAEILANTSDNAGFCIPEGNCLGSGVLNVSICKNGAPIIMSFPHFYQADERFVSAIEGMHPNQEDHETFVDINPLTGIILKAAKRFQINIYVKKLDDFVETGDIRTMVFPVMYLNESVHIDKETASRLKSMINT

[2] = target: T1, soluble LIMP‐2 (sLIMP‐2), secreted LIMP‐2 ectodomain (human); test: pull-down; Ni-NTA beads in conditioned medium of HEK 293F cells expressing His-tagged sLIMP-2 with untagged GCase (96 h); overnight at 4 °C; wash with 20 mM imidazole, elution with 400 mM imidazole, pH 8.0; western blot

binding [1]: no binding
B1: soluble LIMP‐2 (sLIMP‐2), secreted LIMP‐2 ectodomain (domain or fragment, UniProt Q14108 36-431)
chain: T1 sequence

binding [2]: binds
B2: endogenous GCase of HEK 293F cells (enzyme, UniProt P04062-1 40-536)
chain: ARPCIPKSFGYSSVVCVCNATYCDSFDPPTFPALGTFSRYESTRSGRRMELSMGPIQANHTGTGLLLTLQPEQKFQKVKGFGGAMTDAAALNILALSPPAQNLLLKSYFSEEGIGYNIIRVPMASCDFSIRTYTYADTPDDFQLHNFSLPEEDTKLKIPLIHRALQLAQRPVSLLASPWTSPTWLKTNGAVNGKGSLKGQPGDIYHQTWARYFVKFLDAYAEHKLQFWAVTAENEPSAGLLSGYPFQCLGFTPEHQRDFIARDLGPTLANSTHHNVRLLMLDDQRLLLPHWAKVVLTDPEAAKYVHGIAVHWYLDFLAPAKATLGETHRLFPNTMLFASEACVGSKFWEQSVRLGSWDRGMQYSHSIITNLLYHVVGWTDWNLALNPEGGPNWVRNFVDSPIIVDITKDTFYKQPMFYHLGHFSKFIPEGSQRVGLVASQKNDLDAVALMHPDGSAVVVVLNRSSKDVPLTIKDPAVGFLETISPGYSIHTYLWRRQ

binding [2]: binds weakly
B3: untagged GCase L444P (enzyme, UniProt P04062-1 40-536)
chain: B2 chain with L444P
